Assay results as given in patent publication US20190071517A1 (KANAGAWA PREFECTURAL HOSPITAL ORGANIZATION, published 2019).
Results are given in words; binding and its absence hold for the method and conditions named. Some results given as binding are weak or reduced against the parent protein; the word gives no strength.

Columns and labels:
[1] = target: fusion protein 7.623 (SEQ ID NO: 48 bonded to SLURPgpi) (human); test: Western blot (FIG. 14C legend)
[2] = target: fusion protein 7.6 (HEG1 amino acid No. 783 to 991 bonded to SLURPgpi) (human); test: Western blot of SLURPgpi fusion proteins
[3] = target: fusion protein 7.623 (SEQ ID NO: 48 bonded to SLURPgpi) (human); test: Western blot of SLURPgpi fusion proteins
[4] = target: fusion protein 7.62 (SEQ ID NO: 45 bonded to SLURPgpi) (human); test: Western blot of SLURPgpi fusion proteins
[5] = target: fusion protein 7.6 (HEG1 amino acid No. 783 to 991 bonded to SLURPgpi) (human); test: Western blot (FIG. 14B legend)
[6] = target: fusion protein 7.62 (SEQ ID NO: 45 bonded to SLURPgpi) (human); test: Western blot (FIG. 14B legend)

binding [1]: binds | binding [2]: binds | binding [3]: binds | binding [4]: binds | binding [5]: binds | binding [6]: binds
B1: SKM9-2 antibody (antibody, mouse IgG1, kappa, V domains shown)
VH: QVQLQQPGAELVRPGASVKLSCKASGFSFTTYWITWVKQRPGQGLEWIGMIHPSDSETRLSQTFKDKATLTVDKSSNTAYMQFSSPTSEDSAVYYCVRDFDVWGAGTTVTVSS
VL: DVLMTQTPLSLPVSLGDQASISCRSSQNIVHNNGNTYLGWYLQKPGQSPKLLIFKVSNRFSGVPDRFSGSGSGTDFTLKISRVEAEDLGVYYCFQGSHIPRTFGGGTRLEIKR
notes: also called monoclonal antibody produced from the SKM9-2 hybridoma
